Experimental data taken from patent publication EP4371586B1, “MULTIFUNCTIONAL CHITOSAN COMPOSITES FOR BONE DEFECT FILLING AND BONE TISSUE REGENERATION AND METHODS FOR OBTAINING THEM” (Siec Badawcza Lukasiewicz - Instytut Ceramiki i Materialow …, priority 2022, dated 2024).
At least one peptide structure holds a part that was inferred or is arguable (an end, a ring closure or a residue). Peptide text beside a SMILES is read from it.

Legend:
[1] = tested on: hFOB human osteoblast cell line; test: WST-1 proliferation assay of peptides, indirect method per ISO 10993-5; format: cell-based; settings: % of control cells
Method: Cytotoxicity was tested by an indirect method based on the guidelines in ISO 10993- 5 on the hFOB human osteoblast cell line (ATCC) using the LDH assay (Roche). The results presented were averaged from two technical repeats and presented as % relative to control cells treated with 1% Triton X- 100 solution. proliferation was tested by an indirect method based on the guidelines in ISO 10993- 5 on the hFOB human osteoblast cell line (ATCC) using the WST-1 assay (Abcam). The results shown were averaged from two technical repeats and presented as % in relation to control cells cultured without added peptides.
Proliferation and cytotoxicity data were analysed and visualised using GraphPad Prism 8 software (GraphPad Software, USA). Statistical analysis was performed using the Kruskal- Wallis test (p = 0.05). In the next step, the Benjamini, Krieger and Yekutielli multiple comparisons test was performed to control the false discovery rate (p = 0.05). Comparisons were made between results obtained for individual peptide concentrations.

[2] = tested on: Pseudomonas aeruginosa PCM 2563; test: MIC by microdilution method (CLSI M07-A9); format: cell-based; settings: 24 hours at 37 °C, BHI medium, range 3.125 - 250 µg/ml
[3] = tested on: interleukin 8 (IL-8) secreted by WI-38 cells; test: Anti-inflammatory test: IL-8 ELISA on LPS-stimulated WI-38 cells; format: cell-based, human

CC[C@H](C)[C@H](NC(=O)CNC(=O)[C@H](C)NC(=O)[C@H](CCC(N)=O)NC(C)=O)C(=O)N[C@H](C(=O)N[C@H](C(=O)N1CCC[C@H]1C(=O)N[C@@H](CC(C)C)C(=O)NCC(=O)N[C@@H](CC(C)C)C(=O)NCC(=O)N[C@@H](CC(C)C)C(=O)N[C@@H](CC(C)C)C(=O)N[C@@H](CCCCN)C(=O)N[C@@H](CCCNC(=N)N)C(=O)N[C@H](C(=O)N[C@@H](CCCCN)C(=O)N[C@H](C(=O)N[C@@H](CC(C)C)C(=O)N[C@@H](CC(C)C)C(N)=O)[C@@H](C)O)[C@@H](C)CC)C(C)C)C(C)C [ug46] (Ac-QAGIVVPLGLGLLKRIKTLL-NH2)
proliferation ([1]; the other ug46 peptide titrations (other than 100 µg/ml)): exceeding 100%
proliferation ([1]; ug46 at 100 µg/ml): below 70%
Minimum inhibitory concentration of microorganisms (MIC) P. aeruginosa PCM 2563 [2]: >250 µg/mL (outside the analysed concentration range)
stimulation of inflammation (IL-8) by peptide alone ([3]; peptide concentrations above 70 µg/ml, without LPS): slight stimulation of inflammation
decrease in the amount of LPS-mediated interleukin 8 ([3]; ug46 60-30 µg/ml, LPS 750 ng/ml, WI-38 cells): 30-50%
IL-8 deviation in cells incubated without LPS ([3]; ug46 60-30 µg/ml, without LPS): no deviation was observed
